Results deposited as PubChem BioAssay AID1053208 (Peter MacCallum Cancer Centre, 2014).
The whole screen tested about 17,000 reagents; below is a part drawn at random. 788 of all reagents (4.7%) count as active. 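Calls rest on z-score classes alone; an extra cut-off of viability at most 70% of control was not applied to them.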 A number with no mark means an inactive call. Not all columns of the deposit are shown.

- Purpose: 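Find knock-downs that sensitise mouse osteosarcoma cells to doxorubicin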 (primary screen)
- Cell system: mouse osteosarcoma cells, early-passage culture from an engineered mouse model of fibroblastic bone tumour
- Knock-down reagent: siRNA pool against mouse genes, 40 nM
- Timing: about 120 h (48 h before drug, then 72 h with drug)
- Treatment: doxorubicin 100 nM for 72 h, roughly 30-40% inhibitory dose
- Read-out: 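Viability read as ATP luminescence after 72 h of 100 nM doxorubicin or none, duplicate wells averaged, scaled to non-targeting siRNA, then expressed as robust z-scores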
- Direction: viability z-score with doxorubicin: higher = more viable cells under doxorubicin; viability z-score without drug: higher = more viable cells with knock-down alone
- Call rule: 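a pool counts as active when its viability z-score with doxorubicin is -2 or below and its z-score without drug lies between -2 and 2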

Fgf2os
- combined z-score class: no change with or without drug
- viability z-score with doxorubicin: 0.67
- viability z-score without drug: -0.67

Gpr26
- combined z-score class: no change with or without drug
- viability z-score with doxorubicin: 0.22
- viability z-score without drug: -0.17

Bms1
- combined z-score class: no change with or without drug
- viability z-score with doxorubicin: 0
- viability z-score without drug: -1.85

Cnp
- combined z-score class: no change with or without drug
- viability z-score with doxorubicin: 1.01
- viability z-score without drug: 1.69

Cd83
- combined z-score class: no change with or without drug
- viability z-score with doxorubicin: -0.34
- viability z-score without drug: -1.18

Vwa1
- combined z-score class: no change with or without drug
- viability z-score with doxorubicin: -0.45
- viability z-score without drug: -0.17

Tpsg1
- combined z-score class: no change with or without drug
- viability z-score with doxorubicin: 1.12
- viability z-score without drug: 0.51

Gpank1
- combined z-score class: no change with or without drug
- viability z-score with doxorubicin: 0
- viability z-score without drug: -1.85

Itga4
- combined z-score class: no change with or without drug
- viability z-score with doxorubicin: -0.45
- viability z-score without drug: -1.01

Or8k1
- combined z-score class: no change with or without drug
- viability z-score with doxorubicin: -0.67
- viability z-score without drug: -1.52

Pus1
- combined z-score class: no change with or without drug
- viability z-score with doxorubicin: -1.24
- viability z-score without drug: 0.17

Ssb
- combined z-score class: no change with or without drug
- viability z-score with doxorubicin: 0.56
- viability z-score without drug: 0.34

Ccdc50
- combined z-score class: no change with or without drug
- viability z-score with doxorubicin: 0.22
- viability z-score without drug: 0.17

Apln
- combined z-score class: no change with or without drug
- viability z-score with doxorubicin: -0.22
- viability z-score without drug: 0.34

Gpc3
- combined z-score class: no change with or without drug
- viability z-score with doxorubicin: -0.11
- viability z-score without drug: -0.51

Nectin1
- combined z-score class: no change with or without drug
- viability z-score with doxorubicin: -0.45
- viability z-score without drug: -1.18

Acox1
- combined z-score class: no change with or without drug
- viability z-score with doxorubicin: -0.79
- viability z-score without drug: -0.51

Abat
- combined z-score class: no change with or without drug
- viability z-score with doxorubicin: -1.35
- viability z-score without drug: 1.52

Abhd18
- combined z-score class: no change with or without drug
- viability z-score with doxorubicin: 1.01
- viability z-score without drug: 0.51

Records listed so far whose target name starts with G or g:
Gpr26
- combined z-score class: no change with or without drug
- viability z-score with doxorubicin: 0.22
- viability z-score without drug: -0.17

Gpank1
- combined z-score class: no change with or without drug
- viability z-score with doxorubicin: 0
- viability z-score without drug: -1.85

Gpc3
- combined z-score class: no change with or without drug
- viability z-score with doxorubicin: -0.11
- viability z-score without drug: -0.51
